The source of these data is article PMC2614472.

By UniProt entry, the sequences of proteins in these tests, tags left out.
UniProt P13010: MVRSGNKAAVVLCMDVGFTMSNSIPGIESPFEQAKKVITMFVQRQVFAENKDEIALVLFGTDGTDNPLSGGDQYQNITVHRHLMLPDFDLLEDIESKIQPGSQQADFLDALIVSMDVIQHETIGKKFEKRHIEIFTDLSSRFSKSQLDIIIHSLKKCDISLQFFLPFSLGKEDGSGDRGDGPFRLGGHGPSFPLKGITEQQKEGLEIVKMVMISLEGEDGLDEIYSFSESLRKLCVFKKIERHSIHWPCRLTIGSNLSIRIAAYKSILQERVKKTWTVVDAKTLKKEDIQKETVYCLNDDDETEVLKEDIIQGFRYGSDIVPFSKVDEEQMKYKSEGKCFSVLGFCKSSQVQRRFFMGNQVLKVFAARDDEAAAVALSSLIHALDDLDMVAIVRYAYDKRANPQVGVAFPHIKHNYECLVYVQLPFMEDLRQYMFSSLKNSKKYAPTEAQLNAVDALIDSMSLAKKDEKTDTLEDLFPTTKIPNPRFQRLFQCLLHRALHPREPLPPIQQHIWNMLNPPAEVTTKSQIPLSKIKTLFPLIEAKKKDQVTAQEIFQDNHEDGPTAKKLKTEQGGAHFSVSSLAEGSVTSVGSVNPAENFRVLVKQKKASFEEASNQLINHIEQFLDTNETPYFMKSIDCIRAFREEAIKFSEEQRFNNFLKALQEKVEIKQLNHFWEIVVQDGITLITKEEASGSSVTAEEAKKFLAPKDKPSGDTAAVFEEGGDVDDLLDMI
UniProt P12956: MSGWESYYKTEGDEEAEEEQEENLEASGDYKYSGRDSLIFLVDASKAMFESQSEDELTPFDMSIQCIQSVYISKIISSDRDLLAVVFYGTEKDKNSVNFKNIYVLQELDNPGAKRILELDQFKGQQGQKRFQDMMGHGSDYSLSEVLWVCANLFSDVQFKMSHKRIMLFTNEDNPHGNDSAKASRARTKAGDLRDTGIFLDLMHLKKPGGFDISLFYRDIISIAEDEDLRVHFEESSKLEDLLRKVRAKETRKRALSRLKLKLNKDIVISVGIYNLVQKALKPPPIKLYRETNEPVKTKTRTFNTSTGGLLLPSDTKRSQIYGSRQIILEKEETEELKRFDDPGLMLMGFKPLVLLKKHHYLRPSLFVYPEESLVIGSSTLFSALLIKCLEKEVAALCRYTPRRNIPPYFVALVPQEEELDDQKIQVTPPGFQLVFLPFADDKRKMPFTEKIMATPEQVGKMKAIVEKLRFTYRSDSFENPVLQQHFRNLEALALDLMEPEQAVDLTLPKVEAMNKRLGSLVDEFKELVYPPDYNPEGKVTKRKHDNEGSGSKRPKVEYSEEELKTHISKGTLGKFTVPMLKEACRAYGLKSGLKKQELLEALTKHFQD

Results are given in words; binding and its absence hold for the method and conditions named. Binding seen in cells or lysates may run through a third protein. Some results given as binding are weak or reduced against the parent protein; the word gives no strength. For some of these results: Where a sequence is shown, tags or fusion partners need not be part of it.

Assay [1] concerns the target T1, endogenous dysbindin-1 (SH-SY5Y cells) (human (endogenous in SH-SY5Y)) (UniProt Q96EV8).
T1 sequence: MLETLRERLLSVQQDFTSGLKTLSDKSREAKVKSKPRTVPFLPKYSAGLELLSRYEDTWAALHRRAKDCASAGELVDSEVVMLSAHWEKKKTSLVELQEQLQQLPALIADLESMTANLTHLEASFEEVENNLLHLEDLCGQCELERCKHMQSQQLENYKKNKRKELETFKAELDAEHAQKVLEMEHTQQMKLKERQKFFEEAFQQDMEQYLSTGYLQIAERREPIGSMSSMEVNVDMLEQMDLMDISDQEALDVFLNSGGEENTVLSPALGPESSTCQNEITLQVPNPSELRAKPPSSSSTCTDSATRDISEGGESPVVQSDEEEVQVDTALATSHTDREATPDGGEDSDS
Briefly: co-IP; endogenous proteins; SH-SY5Y lysate mixed overnight at 4°C with anti-dysbindin-1 antibody (or normal rabbit IgG) coupled to gel; four washes; elution with 100 mM glycine-HCl pH 2.8 in three fractions; blots with anti-Ku70, anti-Ku80, anti-dysbindin-1.

The target in assay [2] is T2, myc-dysbindin-1 isoform A (human) (UniProt Q96EV8).
T2 sequence: T1 sequence
Kind of assay: co-IP; COS-7 cells doubly transfected with myc-dysbindin-1 isoform and Ku70-V5 or Ku80-V5; lysate (50 mM Tris-HCl pH 7.5, 150 mM NaCl, 1 mM EDTA, 1% Triton X-100) precipitated with anti-myc antibody and protein G Sepharose; blot with anti-V5.

In the case of “ATP-dependent DNA helicase 2 (Ku80), endogenous (from UniProt P13010 1-732)”, the binding result in assay [1] was “binds”. With “Ku70, endogenous (from UniProt P12956 1-609)”, the binding result in assay [1] is recorded as “binds”. Regarding Ku70-V5 (from UniProt P12956 1-609), the binding result in assay [2] is “binds”. Same read-out and setting: the entry for Ku80-V5 (from UniProt P13010 1-732) is “binds”.
